# Data published in publication PMC5996148.
# Values joined by “and” are separate entries in the source; they are usually repeats but may differ in a detail not shown here. Equal entries are not always repeated. This is one part of the list. For some assays here: The exact form of the protein is not confirmed.
# Tests used:
# Experiment in all cases: protein microarray (ProtoArray v5.0), streptavidin-Alexa Fluor 647
# Settings in all cases: 3'-biotin; 20 mM Tris (pH 7.5), 5 mM MgCl2, 100 mM KCl, 0.1% Tween-20, A/T-rich and random oligonucleotide blockers; temperature not stated; high values mean tight binding
# [1] = test system: PAGE2 (human)
# [2] = test system: PAGE5 (human)
# [3] = test system: PALM2 (human)
# [4] = test system: PANK1 (human)
# [5] = test system: PANK4 (human)
# [6] = test system: PARVG (human)
# [7] = test system: PBEF1 (human)
# [8] = test system: PBK (human)
# [9] = test system: PBLD (human)
# [10] = test system: PCDHB16 (human)
# [11] = test system: PCDHGC4 (human)
# [12] = test system: PCDHGC5 (human)
# [13] = test system: PCK1 (human)
# [14] = test system: PCNA (human)
# [15] = test system: PCTP (human)
# [16] = target: T1, PDCD5 (UniProt O14737)
# T1 sequence: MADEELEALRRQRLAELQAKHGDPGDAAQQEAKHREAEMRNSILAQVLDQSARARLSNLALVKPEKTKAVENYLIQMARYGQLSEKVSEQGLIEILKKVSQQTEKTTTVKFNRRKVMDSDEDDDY
# [17] = test system: PDCL (human)
# [18] = test system: PDE4A (human)
# [19] = test system: PDE4D (human)
# [20] = test system: PDE8A (human)
sequence,measurement,setting,value
GGGGACAGGGGTATGGGGAGGGG [G4-3 biotinylated (CtG)],binding signal,[1],-0.339 z-score
same,binding signal,[2],-0.334 z-score
same,binding signal,[3],-0.322 z-score
same,binding signal,[4],-0.33 z-score
same,binding signal,[5],-0.323 z-score
same,binding signal,[6],-0.341 z-score
same,binding signal,[7],-0.31 z-score and -0.32 z-score
same,binding signal,[8],-0.334 z-score
same,binding signal,[9],-0.313 z-score
same,binding signal,[10],-0.326 z-score
same,binding signal,[11],-0.319 z-score
same,binding signal,[12],-0.319 z-score
same,binding signal,[13],-0.337 z-score
same,binding signal,[14],-0.324 z-score
same,binding signal,[15],-0.342 z-score
same,binding signal,[16],-0.331 z-score
same,binding signal,[17],-0.323 z-score
same,binding signal,[18],-0.313 z-score
same,binding signal,[19],-0.3 z-score
same,binding signal,[20],-0.351 z-score

# Reformatted tab-delimited: entries from further up
sequence	measurement	setting	value
GGGGACAGGGGTATGGGGAGGGG [G4-3 biotinylated (CtG)]	binding signal	[1]	-0.339 z-score
same	binding signal	[3]	-0.322 z-score
